From publication PMC5023631
These are yes or no findings as the source states them, for the method shown. For some of these results: Binding seen in cells or lysates may run through a third protein. Some results given as binding are weak or reduced against the parent protein; the word gives no strength. For some of these results: Sequences can lack the tags named with a protein.

Chains of the proteins cited; added tags and fusions are not shown. Lines headed by an entry give the natural chain unless they say otherwise; changes in a name come on top.
UniProt O43526: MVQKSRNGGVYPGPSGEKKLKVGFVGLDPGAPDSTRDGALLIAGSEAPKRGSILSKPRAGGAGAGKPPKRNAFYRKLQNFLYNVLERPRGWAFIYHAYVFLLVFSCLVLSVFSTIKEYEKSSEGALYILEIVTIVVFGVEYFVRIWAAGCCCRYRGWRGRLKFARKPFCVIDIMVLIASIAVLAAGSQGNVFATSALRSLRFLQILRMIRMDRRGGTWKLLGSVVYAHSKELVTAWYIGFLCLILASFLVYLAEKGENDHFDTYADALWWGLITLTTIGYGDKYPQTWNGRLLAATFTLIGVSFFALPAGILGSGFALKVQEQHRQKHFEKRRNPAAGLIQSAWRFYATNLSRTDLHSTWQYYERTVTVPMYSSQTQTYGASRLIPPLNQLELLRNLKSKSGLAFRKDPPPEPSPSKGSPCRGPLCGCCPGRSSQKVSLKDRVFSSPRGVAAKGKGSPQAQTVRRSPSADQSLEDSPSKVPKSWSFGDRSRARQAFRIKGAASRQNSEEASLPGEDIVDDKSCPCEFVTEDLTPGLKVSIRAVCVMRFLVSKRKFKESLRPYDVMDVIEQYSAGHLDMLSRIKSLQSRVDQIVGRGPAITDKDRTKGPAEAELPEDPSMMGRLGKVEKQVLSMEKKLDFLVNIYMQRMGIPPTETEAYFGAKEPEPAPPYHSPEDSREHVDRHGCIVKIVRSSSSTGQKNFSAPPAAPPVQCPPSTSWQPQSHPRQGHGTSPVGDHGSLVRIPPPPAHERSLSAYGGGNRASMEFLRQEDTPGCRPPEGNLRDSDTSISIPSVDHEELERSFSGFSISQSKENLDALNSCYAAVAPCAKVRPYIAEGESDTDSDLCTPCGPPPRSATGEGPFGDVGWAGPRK
UniProt O88944: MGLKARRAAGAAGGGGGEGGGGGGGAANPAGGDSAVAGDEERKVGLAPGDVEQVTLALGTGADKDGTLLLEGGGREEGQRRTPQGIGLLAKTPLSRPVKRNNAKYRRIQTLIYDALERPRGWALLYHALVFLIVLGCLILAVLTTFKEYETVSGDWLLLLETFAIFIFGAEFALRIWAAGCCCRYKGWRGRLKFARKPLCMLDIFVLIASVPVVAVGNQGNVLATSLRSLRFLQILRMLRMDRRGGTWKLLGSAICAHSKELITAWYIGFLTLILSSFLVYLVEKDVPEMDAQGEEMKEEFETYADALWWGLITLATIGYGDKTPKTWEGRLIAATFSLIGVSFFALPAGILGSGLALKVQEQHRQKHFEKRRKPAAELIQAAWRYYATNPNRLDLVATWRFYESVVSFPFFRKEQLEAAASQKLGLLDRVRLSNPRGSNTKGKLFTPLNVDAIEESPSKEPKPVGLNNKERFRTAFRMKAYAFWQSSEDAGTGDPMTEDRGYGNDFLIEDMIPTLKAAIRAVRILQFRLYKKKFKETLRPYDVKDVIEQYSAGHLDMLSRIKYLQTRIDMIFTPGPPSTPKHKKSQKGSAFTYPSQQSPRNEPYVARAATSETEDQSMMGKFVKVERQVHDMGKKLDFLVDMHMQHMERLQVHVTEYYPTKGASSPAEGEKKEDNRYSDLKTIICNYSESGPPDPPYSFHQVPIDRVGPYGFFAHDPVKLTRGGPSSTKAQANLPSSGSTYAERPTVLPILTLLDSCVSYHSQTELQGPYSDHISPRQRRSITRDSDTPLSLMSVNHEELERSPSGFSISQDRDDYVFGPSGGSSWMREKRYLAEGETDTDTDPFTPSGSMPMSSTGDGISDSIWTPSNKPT
UniProt Q00975: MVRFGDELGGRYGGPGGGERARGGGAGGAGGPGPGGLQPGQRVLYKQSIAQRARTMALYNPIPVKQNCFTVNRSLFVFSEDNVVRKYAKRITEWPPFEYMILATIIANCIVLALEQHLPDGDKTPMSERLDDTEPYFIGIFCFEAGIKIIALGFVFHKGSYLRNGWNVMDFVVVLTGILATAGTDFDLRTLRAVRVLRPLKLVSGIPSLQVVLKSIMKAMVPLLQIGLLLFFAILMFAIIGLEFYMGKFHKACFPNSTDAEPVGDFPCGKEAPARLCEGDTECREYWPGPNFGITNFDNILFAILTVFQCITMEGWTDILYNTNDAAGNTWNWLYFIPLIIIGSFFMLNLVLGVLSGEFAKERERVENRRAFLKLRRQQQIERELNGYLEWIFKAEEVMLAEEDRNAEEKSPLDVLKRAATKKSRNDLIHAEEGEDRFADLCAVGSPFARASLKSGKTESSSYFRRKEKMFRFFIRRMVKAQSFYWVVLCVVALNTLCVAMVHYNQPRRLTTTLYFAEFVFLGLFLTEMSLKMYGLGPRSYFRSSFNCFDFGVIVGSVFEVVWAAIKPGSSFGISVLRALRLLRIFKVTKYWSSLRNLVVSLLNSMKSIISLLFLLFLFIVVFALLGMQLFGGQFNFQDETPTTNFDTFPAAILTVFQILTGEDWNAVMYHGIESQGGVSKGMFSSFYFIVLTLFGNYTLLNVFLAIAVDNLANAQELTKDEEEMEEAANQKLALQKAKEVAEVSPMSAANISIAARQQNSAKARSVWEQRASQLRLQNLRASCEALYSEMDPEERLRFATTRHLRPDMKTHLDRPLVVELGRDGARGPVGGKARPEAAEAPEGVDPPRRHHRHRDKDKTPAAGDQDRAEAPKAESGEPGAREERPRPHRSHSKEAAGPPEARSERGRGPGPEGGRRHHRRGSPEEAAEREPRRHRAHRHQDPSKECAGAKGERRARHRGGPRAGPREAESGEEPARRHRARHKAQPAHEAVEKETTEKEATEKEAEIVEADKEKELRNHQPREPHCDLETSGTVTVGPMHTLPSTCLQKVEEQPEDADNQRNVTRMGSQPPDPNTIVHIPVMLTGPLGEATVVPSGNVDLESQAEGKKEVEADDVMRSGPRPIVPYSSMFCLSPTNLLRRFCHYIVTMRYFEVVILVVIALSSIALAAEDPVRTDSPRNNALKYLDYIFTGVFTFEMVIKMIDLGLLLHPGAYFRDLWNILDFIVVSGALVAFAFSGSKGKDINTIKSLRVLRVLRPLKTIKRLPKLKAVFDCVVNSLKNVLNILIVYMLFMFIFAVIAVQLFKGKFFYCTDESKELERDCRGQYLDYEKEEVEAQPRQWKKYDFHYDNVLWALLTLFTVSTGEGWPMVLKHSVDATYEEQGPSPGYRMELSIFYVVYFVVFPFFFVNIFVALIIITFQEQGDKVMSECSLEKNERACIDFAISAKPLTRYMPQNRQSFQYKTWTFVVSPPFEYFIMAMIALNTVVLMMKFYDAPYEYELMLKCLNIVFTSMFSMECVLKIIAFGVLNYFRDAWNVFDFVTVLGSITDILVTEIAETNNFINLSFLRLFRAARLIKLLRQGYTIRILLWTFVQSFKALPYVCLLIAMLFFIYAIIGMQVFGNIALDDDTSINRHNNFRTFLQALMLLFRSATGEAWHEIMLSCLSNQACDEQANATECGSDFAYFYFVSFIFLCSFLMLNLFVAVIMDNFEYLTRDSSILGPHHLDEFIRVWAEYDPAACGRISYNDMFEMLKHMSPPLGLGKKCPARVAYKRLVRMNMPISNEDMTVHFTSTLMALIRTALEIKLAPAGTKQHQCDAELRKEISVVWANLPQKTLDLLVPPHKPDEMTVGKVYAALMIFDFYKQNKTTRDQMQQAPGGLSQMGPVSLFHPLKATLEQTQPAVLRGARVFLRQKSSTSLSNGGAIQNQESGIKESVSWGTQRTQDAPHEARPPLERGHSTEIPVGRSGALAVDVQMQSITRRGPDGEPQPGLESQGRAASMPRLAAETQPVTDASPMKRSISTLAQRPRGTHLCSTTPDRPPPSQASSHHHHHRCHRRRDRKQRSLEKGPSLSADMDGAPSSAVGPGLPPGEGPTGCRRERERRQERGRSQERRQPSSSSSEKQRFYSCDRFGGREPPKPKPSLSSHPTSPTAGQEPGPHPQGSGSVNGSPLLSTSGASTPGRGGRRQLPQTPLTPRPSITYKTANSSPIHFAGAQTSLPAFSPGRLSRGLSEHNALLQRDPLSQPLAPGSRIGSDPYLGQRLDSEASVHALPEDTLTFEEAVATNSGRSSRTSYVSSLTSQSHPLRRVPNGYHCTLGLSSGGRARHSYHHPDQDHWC
UniProt P13806: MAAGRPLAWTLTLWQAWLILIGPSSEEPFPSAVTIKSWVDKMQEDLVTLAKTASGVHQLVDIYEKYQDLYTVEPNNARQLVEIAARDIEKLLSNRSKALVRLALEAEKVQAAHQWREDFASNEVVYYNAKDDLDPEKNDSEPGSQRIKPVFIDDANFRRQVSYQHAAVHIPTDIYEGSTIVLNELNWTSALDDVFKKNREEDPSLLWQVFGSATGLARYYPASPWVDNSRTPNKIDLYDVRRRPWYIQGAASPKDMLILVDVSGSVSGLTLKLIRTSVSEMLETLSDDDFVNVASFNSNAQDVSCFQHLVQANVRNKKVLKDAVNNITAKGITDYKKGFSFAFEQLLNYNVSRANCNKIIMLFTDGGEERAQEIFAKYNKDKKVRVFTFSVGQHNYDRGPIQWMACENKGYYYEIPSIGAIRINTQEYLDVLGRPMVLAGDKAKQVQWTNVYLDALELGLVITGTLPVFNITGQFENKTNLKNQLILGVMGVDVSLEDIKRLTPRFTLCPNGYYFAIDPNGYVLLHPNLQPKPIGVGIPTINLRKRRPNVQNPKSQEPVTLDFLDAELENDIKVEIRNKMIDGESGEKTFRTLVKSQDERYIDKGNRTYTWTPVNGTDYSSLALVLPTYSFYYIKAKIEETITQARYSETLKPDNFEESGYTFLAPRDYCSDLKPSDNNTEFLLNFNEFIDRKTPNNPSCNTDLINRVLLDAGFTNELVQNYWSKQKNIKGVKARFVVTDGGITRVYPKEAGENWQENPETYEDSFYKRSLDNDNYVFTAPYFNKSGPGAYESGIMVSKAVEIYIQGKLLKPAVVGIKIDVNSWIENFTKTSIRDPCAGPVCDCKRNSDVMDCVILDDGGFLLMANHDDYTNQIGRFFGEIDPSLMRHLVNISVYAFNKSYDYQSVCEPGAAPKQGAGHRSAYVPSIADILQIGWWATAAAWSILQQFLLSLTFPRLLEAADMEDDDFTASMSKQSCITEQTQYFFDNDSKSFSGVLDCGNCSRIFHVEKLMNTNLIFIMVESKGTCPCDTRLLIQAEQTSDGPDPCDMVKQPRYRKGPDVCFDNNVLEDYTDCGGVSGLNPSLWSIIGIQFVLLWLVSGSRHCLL
UniProt Q9EPX4: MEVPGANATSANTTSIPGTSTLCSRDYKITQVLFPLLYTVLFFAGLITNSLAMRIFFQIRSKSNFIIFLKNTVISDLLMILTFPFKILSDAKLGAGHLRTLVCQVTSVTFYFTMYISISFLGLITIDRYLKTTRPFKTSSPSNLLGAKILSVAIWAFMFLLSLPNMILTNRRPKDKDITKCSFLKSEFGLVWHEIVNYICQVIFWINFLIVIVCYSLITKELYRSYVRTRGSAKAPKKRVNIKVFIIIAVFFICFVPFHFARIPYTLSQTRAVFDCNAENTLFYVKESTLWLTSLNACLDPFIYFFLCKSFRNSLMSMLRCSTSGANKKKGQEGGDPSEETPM

Legend:
[1] = target: EYFP-tagged Kv7.2 (human) (UniProt O43526); assay: FRET or BRET; epifluorescence three-filter FRET (normalized FRET, NFRET) between ECFP and EYFP fusion proteins in living tsA 201 cells 24 h after transfection; buffer NaCl 140, CaCl2 2.5, MgCl2 2, KOH 3, glucose 20, HEPES 10 mM, pH 7.4
[2] = target: T1, Kv7.2/7.3 heteromers in which Kv7.2 carried the EYFP tag (human | rat) (UniProt O43526+O88944); assay: as above
[3] = target: EYFP-tagged Cav2.2 channel (Cav2.2-EYFP coexpressed with accessory β3 and α2δ1 subunits) (human | rat | rabbit) (UniProt Q00975+P54287+P13806); assay: fluorescence recovery after photobleaching (FRAP); FRAP in TIRF microscopy of YFP-tagged channels and CFP-tagged receptors expressed alone or together in tsA 201 cells; bleached spot of approximately 4 μm; recovery time constants compared; P2Y1 with Kv7 heteromers also with 10 μM ADP (unaffected)
[4] = target: T1, Kv7.2/7.3 heteromers in which Kv7.2 carried the EYFP tag (human | rat); assay: as above
[5] = target: T1, Kv7.2/7.3 heteromers in which Kv7.2 carried the EYFP tag (human | rat); assay: FRET or BRET; donor recovery after acceptor photobleaching (DRAP) in TIRF microscopy, FRET efficiency as percent increase in CFP emission after YFP photobleaching; living tsA 201 cells 48 h after transfection; penetration depth 80 nm; P2Y1 with Kv7 channels also in the presence of 10 μM ADP (no change)
[6] = target: ECFP- and EYFP-labeled P2X2 subunits (UniProt P49653); assay: FRET or BRET; epifluorescence three-filter FRET (normalized FRET, NFRET) between ECFP and EYFP fusion proteins in living tsA 201 cells 24 h after transfection; buffer NaCl 140, CaCl2 2.5, MgCl2 2, KOH 3, glucose 20, HEPES 10 mM, pH 7.4
NTPDase1-EYFP = target: T2, NTPDase1-EYFP (UniProt P97687); assay: FRET or BRET; donor recovery after acceptor photobleaching (DRAP) in TIRF microscopy, FRET efficiency as percent increase in CFP emission after YFP photobleaching; living tsA 201 cells 48 h after transfection; penetration depth 80 nm; P2Y1 with Kv7 channels also in the presence of 10 μM ADP (no change)
T2 sequence: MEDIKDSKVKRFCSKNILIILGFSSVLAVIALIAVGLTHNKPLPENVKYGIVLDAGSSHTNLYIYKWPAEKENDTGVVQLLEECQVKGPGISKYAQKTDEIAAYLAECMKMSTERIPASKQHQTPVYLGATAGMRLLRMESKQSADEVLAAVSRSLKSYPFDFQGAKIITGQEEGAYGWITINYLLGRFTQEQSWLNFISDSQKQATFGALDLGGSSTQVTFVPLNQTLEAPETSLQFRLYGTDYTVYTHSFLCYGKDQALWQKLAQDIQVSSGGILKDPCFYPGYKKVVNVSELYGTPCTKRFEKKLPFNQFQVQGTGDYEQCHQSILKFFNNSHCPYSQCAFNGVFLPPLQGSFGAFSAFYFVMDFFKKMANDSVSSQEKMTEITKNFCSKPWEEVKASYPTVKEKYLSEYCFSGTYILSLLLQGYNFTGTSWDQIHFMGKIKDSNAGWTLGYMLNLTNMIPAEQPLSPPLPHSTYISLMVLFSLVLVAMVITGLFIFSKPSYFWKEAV

## ECFP-tagged Kv7.3 (from UniProt O88944 1-873)
[1]
  binding: binds

## P2Y12 receptor carrying a C-terminal ECFP (from UniProt Q9EPX4 1-343)
[2]
  binding: no binding
[3]
  binding: binds
[4]
  binding: no binding
[5]
  binding: no binding

B1: ECFP- and EYFP-labeled P2X2 subunits (receptor, UniProt P49653 1-472)
chain: MVRRLARGCWSAFWDYETPKVIVVRNRRLGFVHRMVQLLILLYFVWYVFIVQKSYQDSETGPESSIITKVKGITMSEDKVWDVEEYVKPPEGGSVVSIITRIEVTPSQTLGTCPESMRVHSSTCHSDDDCIAGQLDMQGNGIRTGHCVPYYHGDSKTCEVSAWCPVEDGTSDNHFLGKMAPNFTILIKNSIHYPKFKFSKGNIASQKSDYLKHCTFDQDSDPYCPIFRLGFIVEKAGENFTELAHKGGVIGVIINWNCDLDLSESECNPKYSFRRLDPKYDPASSGYNFRFAKYYKINGTTTTRTLIKAYGIRIDVIVHGQAGKFSLIPTIINLATALTSIGVGSFLCDWILLTFMNKNKLYSHKKFDKVRTPKHPSSRWPVTLALVLGQIPPPPSHYSQDQPPSPPSGEGPTLGEGAELPLAVQSPRPCSISALTEQVVDTLGQHMGQRPPVPEPSQQDSTSTDPKGLAQL
[6]
  binding: binds
NTPDase1-EYFP
  binding: no binding
